Data as given in publication doi:10.1101/2021.05.14.444196.

By UniProt entry, the sequences of proteins in these tests, tags left out. Where a name states a change or a piece, a line headed by the entry shows the natural chain unless it says otherwise.
UniProt P02458: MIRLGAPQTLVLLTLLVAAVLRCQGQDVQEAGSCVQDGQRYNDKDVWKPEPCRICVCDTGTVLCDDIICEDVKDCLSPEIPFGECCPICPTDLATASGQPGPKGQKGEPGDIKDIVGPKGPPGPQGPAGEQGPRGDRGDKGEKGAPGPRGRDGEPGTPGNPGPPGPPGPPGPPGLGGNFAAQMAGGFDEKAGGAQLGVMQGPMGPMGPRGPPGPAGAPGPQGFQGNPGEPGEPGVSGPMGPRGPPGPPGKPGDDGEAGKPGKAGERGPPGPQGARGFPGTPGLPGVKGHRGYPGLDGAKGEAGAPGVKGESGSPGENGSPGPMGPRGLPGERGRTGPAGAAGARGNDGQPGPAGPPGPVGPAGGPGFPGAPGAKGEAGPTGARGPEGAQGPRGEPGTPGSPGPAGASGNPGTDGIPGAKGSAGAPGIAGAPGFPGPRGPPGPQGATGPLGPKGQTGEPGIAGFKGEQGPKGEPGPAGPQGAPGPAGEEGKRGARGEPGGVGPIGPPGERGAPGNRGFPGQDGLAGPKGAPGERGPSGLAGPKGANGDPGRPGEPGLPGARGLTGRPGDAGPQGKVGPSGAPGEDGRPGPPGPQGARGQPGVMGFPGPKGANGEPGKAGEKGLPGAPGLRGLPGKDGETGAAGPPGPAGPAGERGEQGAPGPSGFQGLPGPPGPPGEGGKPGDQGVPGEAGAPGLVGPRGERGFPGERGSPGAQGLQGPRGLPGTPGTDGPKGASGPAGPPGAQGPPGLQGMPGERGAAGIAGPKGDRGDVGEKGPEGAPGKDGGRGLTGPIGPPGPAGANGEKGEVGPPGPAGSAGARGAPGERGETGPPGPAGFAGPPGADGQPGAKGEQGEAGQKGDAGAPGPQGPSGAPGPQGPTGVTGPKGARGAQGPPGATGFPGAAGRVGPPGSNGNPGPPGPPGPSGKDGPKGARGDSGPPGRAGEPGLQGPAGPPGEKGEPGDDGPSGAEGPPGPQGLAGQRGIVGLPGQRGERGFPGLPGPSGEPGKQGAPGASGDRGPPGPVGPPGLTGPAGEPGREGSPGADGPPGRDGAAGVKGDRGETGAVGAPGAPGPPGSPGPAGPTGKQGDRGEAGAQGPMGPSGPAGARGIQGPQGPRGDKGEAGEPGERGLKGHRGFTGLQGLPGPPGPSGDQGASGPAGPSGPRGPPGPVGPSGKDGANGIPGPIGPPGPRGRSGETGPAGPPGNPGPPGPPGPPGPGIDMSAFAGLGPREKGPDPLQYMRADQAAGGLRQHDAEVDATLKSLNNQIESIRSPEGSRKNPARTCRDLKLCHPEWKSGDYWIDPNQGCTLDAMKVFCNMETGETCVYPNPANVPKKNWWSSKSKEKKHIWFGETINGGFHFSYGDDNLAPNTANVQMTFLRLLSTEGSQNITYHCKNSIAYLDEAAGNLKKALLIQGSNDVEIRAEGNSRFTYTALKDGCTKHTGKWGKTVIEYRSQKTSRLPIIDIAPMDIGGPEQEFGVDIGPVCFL

Molecular target: T1, recombinant LAIR-1 ectodomain (human) (UniProt Q6GTX8)
T1 sequence: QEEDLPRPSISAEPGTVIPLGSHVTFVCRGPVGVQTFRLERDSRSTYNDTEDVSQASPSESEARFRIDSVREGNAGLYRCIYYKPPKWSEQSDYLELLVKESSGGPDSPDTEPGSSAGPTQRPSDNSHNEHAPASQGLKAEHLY
Assay: affinity purification with mass spectrometry

- binding: binds
Substance: Human collagen II (from UniProt P02458)

No constants are given. Whether binding was seen depends on the method and setting. Binding seen in cells or lysates may run through a third protein. Here binding means that the protein was enriched with, or labelled near, the bait; the list need not be complete.
